Experimental findings from PMC5324674 are described below.

Chains of the proteins cited; added tags and fusions are not shown.
UniProt Q8L7Z3: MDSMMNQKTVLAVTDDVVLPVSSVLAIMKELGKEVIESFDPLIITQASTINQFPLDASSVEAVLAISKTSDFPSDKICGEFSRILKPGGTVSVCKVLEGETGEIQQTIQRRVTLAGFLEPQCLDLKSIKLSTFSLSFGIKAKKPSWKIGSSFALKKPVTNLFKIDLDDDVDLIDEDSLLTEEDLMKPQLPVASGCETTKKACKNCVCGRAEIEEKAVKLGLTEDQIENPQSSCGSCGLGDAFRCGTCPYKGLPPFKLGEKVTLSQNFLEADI

Test in all cases: two-hybrid; Invitrogen ProQuest Two-Hybrid System with Gateway Technology; binary tests of BD and AD fusions; growth on dropout histidine medium with 100 mM 3-AT
In assay [1] the target is T1, NBP35‐C14A, ProQuest two‐hybrid fusion (Arabidopsis thaliana) (UniProt Q8H1Q2).
T1 sequence: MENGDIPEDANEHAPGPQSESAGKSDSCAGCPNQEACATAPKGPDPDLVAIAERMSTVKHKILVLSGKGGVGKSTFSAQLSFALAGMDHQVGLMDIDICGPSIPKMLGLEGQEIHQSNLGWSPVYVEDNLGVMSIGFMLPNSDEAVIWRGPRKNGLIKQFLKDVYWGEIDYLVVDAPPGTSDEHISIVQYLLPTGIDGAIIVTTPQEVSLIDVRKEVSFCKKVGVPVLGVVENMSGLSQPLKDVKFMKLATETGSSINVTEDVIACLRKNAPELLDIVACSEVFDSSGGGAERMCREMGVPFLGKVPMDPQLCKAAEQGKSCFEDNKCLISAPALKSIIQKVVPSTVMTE

The target of assay [2] is T2, Nucleotide‐Binding Protein 35 kDa (NBP35), full‐length, ProQuest two‐hybrid fusion (Arabidopsis thaliana) (UniProt Q8H1Q2).
T2 sequence: T1 sequence with A14C

Assay [3] addresses T3, TAH18, ProQuest two‐hybrid fusion (Arabidopsis thaliana) (UniProt Q6NPS8).
T3 sequence: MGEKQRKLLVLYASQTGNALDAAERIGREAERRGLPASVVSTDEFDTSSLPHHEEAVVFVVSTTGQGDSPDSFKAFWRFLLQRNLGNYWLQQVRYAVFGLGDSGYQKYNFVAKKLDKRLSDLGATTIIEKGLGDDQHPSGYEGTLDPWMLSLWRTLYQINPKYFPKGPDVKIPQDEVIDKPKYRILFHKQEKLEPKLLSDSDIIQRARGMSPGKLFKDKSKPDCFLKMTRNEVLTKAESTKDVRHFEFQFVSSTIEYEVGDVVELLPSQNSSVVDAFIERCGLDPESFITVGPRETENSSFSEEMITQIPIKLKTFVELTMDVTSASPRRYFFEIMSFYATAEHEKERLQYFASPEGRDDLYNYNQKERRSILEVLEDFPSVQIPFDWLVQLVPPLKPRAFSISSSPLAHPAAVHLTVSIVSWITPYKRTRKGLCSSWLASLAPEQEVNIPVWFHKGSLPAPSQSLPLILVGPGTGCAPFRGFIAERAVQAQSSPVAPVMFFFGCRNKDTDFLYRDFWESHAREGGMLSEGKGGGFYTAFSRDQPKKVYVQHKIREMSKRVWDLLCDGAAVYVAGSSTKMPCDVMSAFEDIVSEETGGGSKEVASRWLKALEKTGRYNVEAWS

Numbering of substitutions follows the chain as printed. These are yes or no findings as the source states them, for the method shown. Some binding calls cover weakened binding; strength is not graded here. Tags and fused reporters may be left off the sequences shown.

On to “DRE2 (Derepressed for Ribosomal protein S14 Expression), full‐length, ProQuest two‐hybrid prey (from UniProt Q8L7Z3 1-272)”, for which the results for the binding entry in assay [1], in assay [2] and in assay [3] were “binds weakly”, “binds weakly” and “binds”, respectively.
